Test results published in PubChem BioAssay (NCATS).
Where “and” joins values, the source holds several entries; their conditions need not be identical. Equal entries are not always repeated. The shares of active, inactive and inconclusive entries below differ from those in the screen. For some of these results: Where the call is inconclusive, the potency comes from a doubtful curve fit. Calls of active or inactive are those of the source. Unless noted, calls come from the whole dose curve; as a rule, active = well fitted curve in the direction sought with a large enough effect; inconclusive = small, poorly fitted or top-dose-only effect, or another doubt; inactive = no such curve, though single readings can be large; an effect the other way counts as inactive or inconclusive.

Assays:
[1] = Quantitative High-Throughput drug screen in 47 multiple myeloma cell lines against the NCATS MIPE library collection: KMS12PE_JCRB cell viability assay (AID 1918972); note: nearly all actives have a fitted effect of over 30% in size
Method in brief: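 CellTiter-Glo luminescence (ATP) after 48 h compound exposure, 37C/5% CO2; 500 cells/well; MIPE 4.0 approved/investigational drugs pinned in; DMSO = 100%, media only = 0% viability.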

[2] = Quantitative High-Throughput drug screen in 47 multiple myeloma cell lines against the NCATS MIPE library collection: KMS20_JCRB cell viability assay (AID 1918973); settings: CellTiter-Glo ATP, 48 h; series mostly up to 45.8 µM; note: nearly all actives have a fitted effect of over 45% in size
Method in brief: (§1)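 Steps: seed 500 cells per well; pin-transfer MIPE 4.0 library; incubate 48 h at 37C, 5% CO2, humidified; add CellTiter-Glo, 5 min room temperature; read luminescence.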

[3] = Quantitative High-Throughput drug screen in 47 multiple myeloma cell lines against the NCATS MIPE library collection: KMS21BM_JCRB cell viability assay (AID 1918974); settings: ATP luminescence, 48 h; viability: at 45.8 µM (top of the series)
Method in brief: as §1

[4] = Quantitative High-Throughput drug screen in 47 multiple myeloma cell lines against the NCATS MIPE library collection: KMS26_JCRB cell viability assay (AID 1918975); note: nearly all actives have a fitted effect of over 45% in size
Method in brief: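 Relative luminescence from CellTiter-Glo served as the viability signal, referenced to DMSO-treated (100%) and cell-free medium (0%) controls. Treatment lasted 48 hours at 37C with 500 cells per well.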

[5] = Quantitative High-Throughput drug screen in 47 multiple myeloma cell lines against the NCATS MIPE library collection: MMM1_PLB cell viability assay (AID 1918976); note: nearly all actives have a fitted effect of over 35% in size
Method in brief: (§2)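 500 cells/well; MIPE 4.0 drugs pin-transferred; 48 h, 37C, 5% CO2. CellTiter-Glo, 5 min RT, luminescence. Controls: DMSO 100%, media 0%.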

[6] = Quantitative High-Throughput drug screen in 47 multiple myeloma cell lines against the NCATS MIPE library collection: MOLP8_DSMZ cell viability assay (AID 1918977); note: nearly all actives have a fitted effect of over 45% in size
Method in brief: as §2

[7] = Quantitative High-Throughput drug screen in 47 multiple myeloma cell lines against the NCATS MIPE library collection: LP1_DSMZ cell viability assay (AID 1918982); note: nearly all actives have a fitted effect of over 35% in size
Method in brief: as §2

[8] = Quantitative High-Throughput drug screen in 47 multiple myeloma cell lines against the NCATS MIPE library collection: SKMM1_PLB cell viability assay (AID 1919863); settings: SKMM1 myeloma viability, CellTiter-Glo ATP, 48 h; viability: stronger effect = lower value; note: nearly all actives have a fitted effect of over 35% in size
Method in brief: as §2

[9] = Quantitative High-Throughput drug screen in 47 multiple myeloma cell lines against the NCATS MIPE library collection: PE2_PLB cell viability assay (AID 1919869); note: nearly all actives have a fitted effect of over 35% in size
Method in brief: as §2

[10] = qHTS for identification of novel therapeutic agents for treatment of microphthalmiaassociated transcription factor (MiT) renal cell carcinoma (RCC) (AID 1963991; calls by dose curve); settings: TFE3-RCC UOK109 viability, CellTiter-Glo, 48 h; active = Z-AUC below -0.8 in all three lines
Method in brief: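 Curves over 11 concentrations were fitted to CellTiter-Glo luminescence, scaled between empty wells (0%) and DMSO (100%) viability. Cells were UOK109, UOK124 and UOK145 TFE3-fusion RCC lines at 500/well, exposed 48 hours at 37 C.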

HaCat = experiment: Cytotoxic Profiling of Annotated Libraries Using Quantitative High-Throughput Screening (AID 1296008); settings: Five cell lines viability, CellTiter-Glo ATP luminescence, 48-72 h; max response: stronger effect = lower value; note: nearly all actives have a fitted effect of over 60% in size
Method in brief: (§3)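 Cells exposed to compounds for 48 or 72 hr at 37 degrees Celsius. Viability read as ATP-coupled luminescence with CellTiter-Glo after 10 min at room temperature.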

KB-3-1 = experiment: as above; settings: Five cell lines viability, CellTiter-Glo ATP luminescence, 48-72 h; max response: stronger effect = lower value
Method in brief: as §3

C33A = experiment: Primary qHTS to identify gynecologic anti-cancer compounds using libraries of approved drugs and bioactive compounds (AID 1345084); settings: Gynecologic cancer cell panel viability, ATPlite luminescence, 48 h; series mostly up to 57.5 µM; note: nearly all actives have a fitted effect of over 55% in size
Method in brief: (§4)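 Five-concentration response, 48 h; readout is ATP-driven luciferase luminescence.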

CAOV3 = experiment: as above; settings: Gynecologic cancer cell panel viability, ATPlite luminescence, 48 h; activity change, negative = cytotoxicity: at 57.5 µM (top of the series)
Method in brief: as §4

CASKI = experiment: as above; settings: Gynecologic cancer cell panel viability, ATPlite luminescence, 48 h; series mostly up to 57.5 µM
Method in brief: as §4

Es-2 = experiment: as above; settings: Gynecologic cancer cell panel viability, ATPlite luminescence, 48 h; series mostly up to 57.5 µM
Method in brief: as §4

HeLa = experiment: as above; settings: Gynecologic cancer cell panel viability, ATPlite luminescence, 48 h; activity change, negative = cytotoxicity: at 57.5 µM (top of the series)
Method in brief: as §4

Hek293T = experiment: as above; settings: Gynecologic cancer cell panel viability, ATPlite luminescence, 48 h, control line for the selectivity index; activity change, negative = cytotoxicity: at 57.5 µM (top of the series) unless noted
Method in brief: as §4

OV90 = experiment: as above; settings: Gynecologic cancer cell panel viability, ATPlite luminescence, 48 h; series mostly up to 57.5 µM
Method in brief: as §4

SKOV3 = experiment: as above; settings: Gynecologic cancer cell panel viability, ATPlite luminescence, 48 h; series mostly up to 57.5 µM
Method in brief: as §4

Tov-21-G = experiment: as above; settings: Gynecologic cancer cell panel viability, ATPlite luminescence, 48 h; activity change, negative = cytotoxicity: at 57.5 µM (top of the series) unless noted
Method in brief: as §4

Tov112D = experiment: as above; settings: Gynecologic cancer cell panel viability, ATPlite luminescence, 48 h; series mostly up to 57.5 µM
Method in brief: as §4

MCC-13 = experiment: qHTS assay to identify novel small-molecules to repurpose for Merkel cell carcinoma treatment (AID 1296009); settings: MCC and control cell lines, CellTiter-Glo viability, 72 h; series mostly up to 46 µM; note: nearly all actives have a fitted effect of over 60% in size
Method in brief: (§5)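 CellTiter-Glo luminescence after 72 hr compound exposure at 37 degree celsius gave cell viability. Libraries NPC and MIPE were run as 8- and 11-point dose responses; RLUs normalized to DMSO (negative) and no-cell (cytotoxicity) controls.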

MCC-26 = experiment: as above; settings: MCC and control cell lines, CellTiter-Glo viability, 72 h; activity change, negative = cytotoxicity: at 46 µM (top of the series)
Method in brief: as §5

MKL-1 = experiment: as above; settings: MCC and control cell lines, CellTiter-Glo viability, 72 h; activity change, negative = cytotoxicity: at 46 µM (top of the series)
Method in brief: as §5

MKL-2 = experiment: as above; settings: MCC and control cell lines, CellTiter-Glo viability, 72 h; activity change, negative = cytotoxicity: at 46 µM (top of the series)
Method in brief: as §5

UISO = experiment: as above; settings: MCC and control cell lines, CellTiter-Glo viability, 72 h; activity change, negative = cytotoxicity: at 46 µM (top of the series)
Method in brief: as §5

WaGa = experiment: as above; settings: MCC and control cell lines, CellTiter-Glo viability, 72 h; series mostly up to 46 µM
Method in brief: as §5
Potency is the fitted concentration of half-maximal effect.

**Q.** For `CC(=O)Nc1nc(C)c(-c2ccc(Cl)c(S(=O)(=O)NCCO)c2)s1`, which Potency [1] is on record?
**A.** The Potency was active: 5.26 µM.

**Q.** What about the Potency [2] of the same compound?
**A.** The Potency was active: 1.18 µM.

**Q.** And the Potency [3]?
**A.** Its Potency is active: 1.66 µM.

**Q.** And the Potency [4]?
**A.** The Potency was active: 7.43 µM.

**Q.** What about the Potency [5] of the same compound?
**A.** Its Potency is active: 5.9 µM.

**Q.** And the Potency [6]?
**A.** Its Potency is active: 9.35 µM.

**Q.** What about the Potency [7] of the same compound?
**A.** Its Potency is active: 3.32 µM.

**Q.** And the Potency [8]?
**A.** The Potency was inconclusive: 11.8 µM [cytotoxic, partial curve, poor fit].

**Q.** And the Potency [9]?
**A.** The Potency was active: 4.69 µM.

**Q.** What about the Potency [10] of the same compound?
**A.** Its Potency is inconclusive: 1.87 µM [falling, full curve].

**Q.** What about the Potency (HaCat) of the same compound?
**A.** The Potency was active: 6.51 µM.

**Q.** And the Potency (KB-3-1)?
**A.** The Potency was active: 9.35 µM and inconclusive: 16.4 µM [inhibitor, single point].

**Q.** What about the Potency (C33A) of the same compound?
**A.** Its Potency is inconclusive: 10 µM [cytotoxic, partial curve].

**Q.** What about the Potency (CAOV3) of the same compound?
**A.** Its Potency is active: 14.1 µM.

**Q.** What about the Potency (CASKI) of the same compound?
**A.** The Potency was active: 12.6 µM.

**Q.** What about the Potency (Es-2) of the same compound?
**A.** Its Potency is inconclusive: 28.2 µM [cytotoxic, single point].

**Q.** And the Potency (HeLa)?
**A.** Its Potency is inconclusive: 20 µM [cytotoxic, partial curve, poor fit].

**Q.** And the Potency (Hek293T)?
**A.** The Potency was inconclusive: 20 µM [cytotoxic, single point].

**Q.** What about the Potency (OV90) of the same compound?
**A.** Its Potency is inconclusive: 10 µM [cytotoxic, partial curve].

**Q.** And the Potency (SKOV3)?
**A.** Its Potency is active: 11.2 µM.

**Q.** What about the Potency (Tov-21-G) of the same compound?
**A.** Its Potency is inconclusive: 22.4 µM [cytotoxic, single point].

**Q.** What about the Potency (Tov112D) of the same compound?
**A.** Its Potency is inconclusive: 20 µM [cytotoxic, partial curve, poor fit].

**Q.** What about the Potency (MCC-13) of the same compound?
**A.** The Potency was inconclusive: 13.2 µM [inhibitor, partial curve, poor fit].

**Q.** And the Potency (MCC-26)?
**A.** Its Potency is inconclusive: 8.33 µM [inhibitor, partial curve, poor fit].

**Q.** And the Potency (MKL-1)?
**A.** The Potency was inconclusive: 16.6 µM [inhibitor, partial curve].

**Q.** And the Potency (MKL-2)?
**A.** The Potency was inconclusive: 2.64 µM [inhibitor, full curve, poor fit].

**Q.** And the Potency (UISO)?
**A.** The Potency was inconclusive: 3.72 µM [inhibitor, full curve].

**Q.** And the Potency (WaGa)?
**A.** The Potency was active: 5.9 µM.
